These results are taken from paper PMC5567221, “The open architecture of HD-PTP phosphatase provides new insights into the mechanism of regulation of ESCRT function” (Scientific Reports, 2017).

Assay [1] concerns the target HD-PTP Bro1-CC (residues 1-714) (UniProt Q9H3S7). As to the kind of experiment: SEC-MALS; Superdex-200 10/300 GL; 20 mM Tris-Cl pH 8.0, 100 mM NaCl, 1 mM TCEP (HD-PTPCC and HD-PTP Bro1-CC) or 20 mM HEPES pH 7.4, 250 mM NaCl, 2 mM EDTA (HD-PTP Bro1-CC-PRR); both purified. Background: Size exclusion chromatography separates by hydrodynamic size, large species first.
For assay [2] the target is unchanged. Put plainly: AUC; sedimentation velocity on protein fractions from MALS; 50,000 rpm, 20 °C, 280 nm; Sedfit; both purified.
In assay [3] the target is HD-PTP Bro1-CC-PRR (residues 1-738) (UniProt Q9H3S7). Put plainly: SEC-MALS; Superdex-200 10/300 GL; 20 mM Tris-Cl pH 8.0, 100 mM NaCl, 1 mM TCEP (HD-PTPCC and HD-PTP Bro1-CC) or 20 mM HEPES pH 7.4, 250 mM NaCl, 2 mM EDTA (HD-PTP Bro1-CC-PRR); both purified.
Assay [4] shares this target. As to the kind of experiment: AUC; sedimentation velocity on protein fractions from MALS; 50,000 rpm, 20 °C, 280 nm; Sedfit; both purified.
The target in assay [5] is HD-PTP coiled-coil domain (residues 362-704) (UniProt Q9H3S7). As to the kind of experiment: SEC-MALS; Superdex-200 10/300 GL; 20 mM Tris-Cl pH 8.0, 100 mM NaCl, 1 mM TCEP (HD-PTPCC and HD-PTP Bro1-CC) or 20 mM HEPES pH 7.4, 250 mM NaCl, 2 mM EDTA (HD-PTP Bro1-CC-PRR); both purified.
For assay [6] the target is unchanged. As to the kind of experiment: AUC; sedimentation velocity on protein fractions from MALS; 50,000 rpm, 20 °C, 280 nm; Sedfit; both purified.

No constants are given. Whether binding was seen depends on the method and setting.

B1: HD-PTP Bro1-CC (residues 1-714) (domain or fragment, UniProt Q9H3S7 1-714)
chain: MEAVPRMPMIWLDLKEAGDFHFQPAVKKFVLKNYGENPEAYNEELKKLELLRQNAVRVPRDFEGCSVLRKYLGQLHYLQSRVPMGSGQEAAVPVTWTEIFSGKSVAHEDIKYEQACILYNLGALHSMLGAMDKRVSEEGMKVSCTHFQCAAGAFAYLREHFPQAYSVDMSRQILTLNVNLMLGQAQECLLEKSMLDNRKSFLVARISAQVVDYYKEACRALENPDTASLLGRIQKDWKKLVQMKIYYFAAVAHLHMGKQAEEQQKFGERVAYFQSALDKLNEAIKLAKGQPDTVQDALRFTMDVIGGKYNSAKKDNDFIYHEAVPALDTLQPVKGAPLVKPLPVNPTDPAVTGPDIFAKLVPMAAHEASSLYSEEKAKLLREMMAKIEDKNEVLDQFMDSMQLDPETVDNLDAYSHIPPQLMEKCAALSVRPDTVRNLVQSMQVLSGVFTDVEASLKDIRDLLEEDELLEQKFQEAVGQAGAISITSKAELAEVRREWAKYMEVHEKASFTNSELHRAMNLHVGNLRLLSGPLDQVRAALPTPALSPEDKAVLQNLKRILAKVQEMRDQRVSLEQQLRELIQKDDITASLVTTDHSEMKKLFEEQLKKYDQLKVYLEQNLAAQDRVLCALTEANVQYAAVRRVLSDLDQKWNSTLQTLVASYEAYEDLMKKSQEGRDFYADLESKVAALLERTQSTCQAREAARQQLLDRELKK
As to B1, the binding result in assay [1] and in assay [2] was “no binding” each time.

B2: HD-PTP Bro1-CC-PRR (residues 1-738) (domain or fragment, UniProt Q9H3S7 1-738)
chain: MEAVPRMPMIWLDLKEAGDFHFQPAVKKFVLKNYGENPEAYNEELKKLELLRQNAVRVPRDFEGCSVLRKYLGQLHYLQSRVPMGSGQEAAVPVTWTEIFSGKSVAHEDIKYEQACILYNLGALHSMLGAMDKRVSEEGMKVSCTHFQCAAGAFAYLREHFPQAYSVDMSRQILTLNVNLMLGQAQECLLEKSMLDNRKSFLVARISAQVVDYYKEACRALENPDTASLLGRIQKDWKKLVQMKIYYFAAVAHLHMGKQAEEQQKFGERVAYFQSALDKLNEAIKLAKGQPDTVQDALRFTMDVIGGKYNSAKKDNDFIYHEAVPALDTLQPVKGAPLVKPLPVNPTDPAVTGPDIFAKLVPMAAHEASSLYSEEKAKLLREMMAKIEDKNEVLDQFMDSMQLDPETVDNLDAYSHIPPQLMEKCAALSVRPDTVRNLVQSMQVLSGVFTDVEASLKDIRDLLEEDELLEQKFQEAVGQAGAISITSKAELAEVRREWAKYMEVHEKASFTNSELHRAMNLHVGNLRLLSGPLDQVRAALPTPALSPEDKAVLQNLKRILAKVQEMRDQRVSLEQQLRELIQKDDITASLVTTDHSEMKKLFEEQLKKYDQLKVYLEQNLAAQDRVLCALTEANVQYAAVRRVLSDLDQKWNSTLQTLVASYEAYEDLMKKSQEGRDFYADLESKVAALLERTQSTCQAREAARQQLLDRELKKKPPPRPTAPKPLLPRREESEAVEA
As to B2, the binding entry in assay [3] and in assay [4] was “no binding” throughout.

B3: HD-PTP coiled-coil domain (residues 362-704) (domain or fragment, UniProt Q9H3S7 362-704)
chain: PMAAHEASSLYSEEKAKLLREMMAKIEDKNEVLDQFMDSMQLDPETVDNLDAYSHIPPQLMEKCAALSVRPDTVRNLVQSMQVLSGVFTDVEASLKDIRDLLEEDELLEQKFQEAVGQAGAISITSKAELAEVRREWAKYMEVHEKASFTNSELHRAMNLHVGNLRLLSGPLDQVRAALPTPALSPEDKAVLQNLKRILAKVQEMRDQRVSLEQQLRELIQKDDITASLVTTDHSEMKKLFEEQLKKYDQLKVYLEQNLAAQDRVLCALTEANVQYAAVRRVLSDLDQKWNSTLQTLVASYEAYEDLMKKSQEGRDFYADLESKVAALLERTQSTCQAREAAR
Consider B3, for which the binding result in assay [5] and in assay [6] was “no binding” in each case.
